Laboratory results from PubChem BioAssay (EPA / NIEHS).
Where “and” joins values, the source holds several entries; their conditions need not be identical. Equal entries are not always repeated. This list was built around the results that the source calls inconclusive (neither active nor inactive); the mix of calls is not that of the screen. Potencies of inconclusive entries are doubtful fits and often do not repeat. Some structures have more than one record in an assay (separate samples or runs), and their calls can disagree. Calls of active or inactive are those of the source. Rule for the calls: active = hit-call score of the fitted dose curve at least 0.9, where 1 is the maximum; inconclusive = response in the unintended direction; inactive = score below 0.9.

Protein sequences, listed by entry. Tags and fused reporters are not part of them.
UniProt P04637, whole entry, looked up: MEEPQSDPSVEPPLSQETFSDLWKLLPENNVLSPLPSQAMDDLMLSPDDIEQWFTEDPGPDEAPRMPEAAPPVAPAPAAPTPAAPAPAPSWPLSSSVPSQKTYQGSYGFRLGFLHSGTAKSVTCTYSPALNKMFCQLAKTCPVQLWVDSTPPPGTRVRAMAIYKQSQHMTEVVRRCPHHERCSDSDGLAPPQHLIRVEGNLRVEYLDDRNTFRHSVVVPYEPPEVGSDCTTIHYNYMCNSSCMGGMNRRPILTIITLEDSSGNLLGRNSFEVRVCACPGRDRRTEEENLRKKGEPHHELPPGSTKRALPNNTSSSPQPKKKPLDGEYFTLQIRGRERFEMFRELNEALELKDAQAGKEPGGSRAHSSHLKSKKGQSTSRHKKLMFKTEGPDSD

tested on: not listed separately; assay: TOX21_p53_BLA_p5_viability: Viability Assessment in the Tox21 HCT-116 p53 Agonism Beta-lactamase Assay, Phase 5 (AID 2283600)
Outline: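 Decreased CellTiter-Glo luminescence denotes lost viability. Exposure: 16 h at 37C, 5% CO2, with compounds from DMSO stocks diluted 217-fold in wells of 4000 cells.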

Row | SMILES | AC50
1 | CC(C)N1C(=O)N(c2ccccc2)CSC1=NC(C)(C)C | active: 69 µM
2 | CC1(C)CN=C(NN=C(/C=C/c2ccc(C(F)(F)F)cc2)/C=C/c2ccc(C(F)(F)F)cc2)NC1 | active: 46.1 µM
3 | C[C@]12CCC(=O)C=C1CC[C@@H]1[C@@H]2CC[C@@]2(C)[C@H]1CC[C@]2(C)O | inconclusive: 23 µM and inconclusive: 3.05 nM
4 | CCC[CH2][Sn]([CH2]CCC)([CH2]CCC)[O]C(=O)c1ccccc1 | active: 1.77 µM
5 | CCCCOC(=O)c1ccccc1C(=O)OCCCC | inconclusive: 131 nM and inconclusive: 14 µM
6 | O=C(Cc1ccccc1)c1ccccc1 | inconclusive: 46.1 µM
7 | CNC(=O)Oc1cccc2c1OC(C)(C)O2 | inconclusive: 46.1 µM and inconclusive: 4.56 µM
8 | CCCCCCCCCC[N+](C)(C)CCCCCCCCCC | active: 23 µM

molecular target: Cellular tumor antigen p53 (Homo sapiens) (UniProt P04637); assay: TOX21_p53_BLA_p4_ratio: Tox21 HCT-116 p53 Agonism Beta-lactamase Assay, Ratio, Phase 4 (AID 2283601)
Outline: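 HCT116 cells carrying an inducible beta-lactamase reporter were plated at 4000 cells/well, rested 5 h, then exposed to compounds in DMSO (217-fold dilution) for 16 h at 37C. CCF4-AM substrate was loaded 2 h at room temperature; 460/530 nm emission ratio scored gain-of-signal versus DMSO.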

Row | SMILES | AC50 | outcome
9 | O=C(Nc1ccc2[nH]ccc2c1)c1cc2cc(F)ccc2n1Cc1cccc(F)c1 | active: 42.2 µM | 
10 | CCc1nn(C)c(C(=O)NCc2ccc(C(C)(C)C)cc2)c1Cl | active: 76.6 µM | 
11 | CCC(C)c1cc([N+](=O)[O-])cc([N+](=O)[O-])c1O (stereo not given) | active: 4.83 µM | 
12 | O=[N+]([O-])c1ccc(Cl)c([N+](=O)[O-])c1 | active: 22.7 µM | 
13 | COC(=O)NC(=S)Nc1ccccc1NC(=S)NC(=O)OC |  | inactive
14 | C=C(C)C(=O)[O][Sn]([CH2]CCC)([CH2]CCC)[CH2]CCC | active: 28.7 µM | 
15 | C[C@H]1CCCC(=O)CCC/C=C/c2cc(O)cc(O)c2C(=O)O1 | active: 8.07 µM and active: 12.3 µM | 
16 | CC(C)(c1ccccc1)c1ccc(O)c(C(C)(C)c2ccccc2)c1 | active: 37.5 µM and active: 29 µM | 
17 | CC(c1ccc(O)cc1)(c1ccc(O)cc1)c1ccc(O)cc1 | active: 80.8 µM | 
18 | CCN1CCC2(CC1)COc1cc3c(cc12)N(C(=O)c1ccc(-c2ccc(-c4nnc(C)o4)cc2C)cc1)CC3 | active: 57.4 µM | 
19 | NS(=O)(=O)C(F)(F)C(F)(F)C(F)(F)C(F)(F)C(F)(F)C(F)(F)C(F)(F)C(F)(F)F |  | inactive
20 | CC(C)N1C(=O)N(c2ccccc2)CSC1=NC(C)(C)C | active: 87.2 µM | 
21 | C[C@]12CCC(=O)C=C1CC[C@@H]1[C@@H]2CC[C@@]2(C)[C@H]1CC[C@]2(C)O | active: 48.6 µM | 
22 | CCC[CH2][Sn]([CH2]CCC)([CH2]CCC)[O]C(=O)c1ccccc1 | active: 27.2 µM | 
23 | CCCCOC(=O)c1ccccc1C(=O)OCCCC | inconclusive: 46.1 µM | 
24 | CNC(=O)Oc1cccc2c1OC(C)(C)O2 |  | inactive
25 | CCCCCCCCCC[N+](C)(C)CCCCCCCCCC | active: 26.8 µM and active: 35 µM | 

Shown as labelled records: part of the list above.
CC(c1ccc(O)cc1)(c1ccc(O)cc1)c1ccc(O)cc1
  AC50: active: 80.8 µM
CCCCOC(=O)c1ccccc1C(=O)OCCCC
  AC50: inconclusive: 46.1 µM
